# From the supplement of paper PMC8728848
# The list shows a part of the results.
# Assays:
# Experiment in all cases: glycan array binding signal (z-score within array); higher = stronger binding
# Settings in all cases: glycan notation: IUPAC condensed, linker removed
# [1] = target: Fuc(a1-3)[Gal(b1-4)]Glc6S
# How it was run: (§1)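 Negative Z-scores can be read as non-binding. The Z-score is calculated within each array and then averaged across arrays of one protein sequence at different concentrations or buffers and across linkers. Arrays, 3228 in all, were curated from the Consortium for Functional Glycomics database and kept only where the protein sequence was available.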
# [2] = target: Fuc(a1-3)[Gal(b1-4)]GlcNAc
# How it was run: as §1
# [3] = target: Fuc(a1-3)[Gal(b1-4)]GlcNAc(b1-2)Man
# How it was run: as §1
# [4] = target: Fuc(a1-3)[Gal(b1-4)]GlcNAc(b1-2)Man(a1-3)[Fuc(a1-3)[Gal(b1-4)]GlcNAc(b1-2)Man(a1-6)]Man(b1-4)GlcNAc(b1-4)GlcNAc
# How it was run: as §1
# [5] = target: Fuc(a1-3)[Gal(b1-4)]GlcNAc(b1-2)Man(a1-3)[Fuc(a1-3)[Gal(b1-4)]GlcNAc(b1-2)Man(a1-6)]Man(b1-4)GlcNAc(b1-4)[Fuc(a1-6)]GlcNAc
# How it was run: as §1
# [6] = target: Fuc(a1-3)[Gal(b1-4)]GlcNAc(b1-3)Gal(b1-3)[Fuc(a1-4)]GlcNAc
# How it was run: as §1
# [7] = target: Fuc(a1-3)[Gal(b1-4)]GlcNAc(b1-3)Gal(b1-4)[Fuc(a1-3)]GlcNAc
# How it was run: as §1
# [8] = target: Fuc(a1-3)[Gal(b1-4)]GlcNAc(b1-3)Gal(b1-4)[Fuc(a1-3)]GlcNAc(b1-3)Gal(b1-4)[Fuc(a1-3)]GlcNAc
# How it was run: as §1
# [9] = target: Fuc(a1-3)[Gal(b1-4)]GlcNAc(b1-3)GalNAc
# How it was run: as §1
# [10] = target: Fuc(a1-3)[Gal(b1-4)]GlcNAc(b1-6)GalNAc
# How it was run: as §1
# [11] = target: Fuc(a1-3)[Gal(b1-4)]GlcNAc(b1-6)[Gal(b1-3)GlcNAc(b1-3)]Gal(b1-4)Glc
# How it was run: as §1
# [12] = target: Fuc(a1-3)[Gal(b1-4)]GlcNAc6S
# How it was run: as §1
# [13] = target: Fuc(a1-3)[Gal3S(b1-4)]Glc
# How it was run: as §1
# [14] = target: Fuc(a1-3)[Gal3S(b1-4)]GlcNAc
# How it was run: as §1
# [15] = target: Fuc(a1-3)[Gal3S(b1-4)]GlcNAc6S
# How it was run: as §1
# [16] = target: Fuc(a1-3)[GalNAc(b1-4)]GlcNAc
# How it was run: as §1
# [17] = target: Fuc(a1-3)[GalNAc(b1-4)]GlcNAc6S
# How it was run: as §1
# Fuc(a1-4)GlcNAc = target: Fuc(a1-4)GlcNAc
# How it was run: as §1
# Fuc(b1-3)GlcNAc = target: Fuc(b1-3)GlcNAc
# How it was run: as §1
# Gal(a1-2)Gal = target: Gal(a1-2)Gal
# How it was run: as §1
# Gal(a1-3)Gal = target: Gal(a1-3)Gal
# How it was run: as §1
# Gal(a1-3)Gal(b1-3)GlcNAc = target: Gal(a1-3)Gal(b1-3)GlcNAc
# How it was run: as §1
# [18] = target: Gal(a1-3)Gal(b1-3)GlcNAc(b1-2)Man
# How it was run: as §1
# [19] = target: Gal(a1-3)Gal(b1-3)GlcNAc(b1-2)Man(a1-3)[Gal(a1-3)Gal(b1-3)GlcNAc(b1-2)Man(a1-6)]Man(b1-4)GlcNAc(b1-4)GlcNAc
# How it was run: as §1
# [20] = target: Gal(a1-3)Gal(b1-3)GlcNAc(b1-3)GalNAc
# How it was run: as §1
# [21] = target: Gal(a1-3)Gal(b1-3)GlcNAc(b1-6)GalNAc
# How it was run: as §1
# [22] = target: Gal(a1-3)Gal(b1-3)[Fuc(a1-4)]GlcNAc(b1-2)Man(a1-3)[Gal(a1-3)Gal(b1-3)[Fuc(a1-4)]GlcNAc(b1-2)Man(a1-6)]Man(b1-4)GlcNAc(b1-4)GlcNAc
# How it was run: as §1
# Gal(a1-3)Gal(b1-4)Glc = target: Gal(a1-3)Gal(b1-4)Glc
# How it was run: as §1
# Gal(a1-3)Gal(b1-4)GlcNAc = target: Gal(a1-3)Gal(b1-4)GlcNAc
# How it was run: as §1
# [23] = target: Gal(a1-3)Gal(b1-4)GlcNAc(b1-2)Man
# How it was run: as §1
binder,measurement,setting,value
"GroEL (Clostridium difficile), Q18CT5 (protein) MAKEIKFSEETRRALEAGVNKLADTVKVTLGPKGRNVILDKKFGSPLITNDGVTIAKEIELEDRFENMGAQLVKEVATKTNDVAGDGTTTATVLAQAIIREGLKNVTAGANPILLRKGIQKAVTVAVEELKNQSRIVETQEAISQVASISAGDEEVGKLIAEAMEIVGKDGVITVEESQTMNTELDAVEGMQFDRGFVSAYMVTDVDKMEAVLNDPYILITDKKISNIQELLPVLEQIVQQGKKLLIIAEDVEGEALSTLVVNKLRGTFDVVAVKAPGFGDRRKEMLQDIAILTGAQVISEELGYDLKEADLSMLGRASSVKVTKESTTIVDGSGDKKAIEDRVTQIKHQVEQTTSDFDREKLMERLAKLAGGVAVVKVGAATEVELKERKLRIEDALNATRAAVEEGIVAGGGTAFVSVIPAIGTLIESLEGEVKLGAQIVKKALEEPLRQIAINAGLEGAVIVQNVVNSEAETGFDALNEKYVNMIEAGIVDPTKVSRSALQNAASIASTFLTTEAAVADLPEKEDAGMPGMGGGMPGMM",glycan array binding signal (z-score),[1],-0.05
same,glycan array binding signal (z-score),[2],-0.07
same,glycan array binding signal (z-score),[3],-0.172
same,glycan array binding signal (z-score),[4],-1.04
same,glycan array binding signal (z-score),[5],-2.09
same,glycan array binding signal (z-score),[6],0.108
same,glycan array binding signal (z-score),[7],0.779
same,glycan array binding signal (z-score),[8],-1.52
same,glycan array binding signal (z-score),[9],-0.464
same,glycan array binding signal (z-score),[10],0.326
same,glycan array binding signal (z-score),[11],-0.995
same,glycan array binding signal (z-score),[12],0.508
same,glycan array binding signal (z-score),[13],-0.085
same,glycan array binding signal (z-score),[14],-1.14
same,glycan array binding signal (z-score),[15],0.173
same,glycan array binding signal (z-score),[16],0.36
same,glycan array binding signal (z-score),[17],-0.461
same,glycan array binding signal (z-score),Fuc(a1-4)GlcNAc,-0.836
same,glycan array binding signal (z-score),Fuc(b1-3)GlcNAc,1.27
same,glycan array binding signal (z-score),Gal(a1-2)Gal,-0.524
same,glycan array binding signal (z-score),Gal(a1-3)Gal,-1.17
same,glycan array binding signal (z-score),Gal(a1-3)Gal(b1-3)GlcNAc,-0.198
same,glycan array binding signal (z-score),[18],-0.098
same,glycan array binding signal (z-score),[19],0.037
same,glycan array binding signal (z-score),[20],0.846
same,glycan array binding signal (z-score),[21],0.01
same,glycan array binding signal (z-score),[22],0.344
same,glycan array binding signal (z-score),Gal(a1-3)Gal(b1-4)Glc,-0.06
same,glycan array binding signal (z-score),Gal(a1-3)Gal(b1-4)GlcNAc,0.298
same,glycan array binding signal (z-score),[23],-0.268
